Publication PMC6317822, “RSM1, an Arabidopsis MYB protein, interacts with HY5/HYH to modulate seed germination and seedling development in response to abscisic acid and salinity” (PLoS Genetics, 2018)
Construct, isoform or probe ends are uncertain for at least one entry. Protein sequences can lack the tags named with them.

Target: T1, GST-HY5 (Arabidopsis thaliana) (UniProt O24646)
T1 sequence (looked up): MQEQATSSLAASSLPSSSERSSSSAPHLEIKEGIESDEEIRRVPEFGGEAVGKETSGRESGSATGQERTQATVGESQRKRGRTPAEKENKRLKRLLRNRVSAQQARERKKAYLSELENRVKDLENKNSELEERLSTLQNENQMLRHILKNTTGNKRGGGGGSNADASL
Assay: EMSA
Conditions: plus increasing His-RSM1: binding enhanced; EMSA: 2 ug protein in 20 uL, 10 mM Tris-HCl pH 7.5, 50 mM KCl, 1 mM DTT, 50 ng/uL poly(dI-dC), 25 C, 20 min; 4-6% native PAGE, 0.5x TBE; recombinant protein; residues 1-168; protein details: GST (pGEX-4T-1 in Methods, pGEX-6P-1 in S7 Table); label: biotin 5' on both strands

CCTTATGCAGTGAATAGTCCACGTGCACTCCCAATGGAAGTTCGGAATC (double strand) [ABI5 promoter probe (HY5 site)]
binding result: binds
